Record: PubChem BioAssay AID1159578 (Peter MacCallum Cancer Centre, 2015)
Aim: 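siRNA pools altering how lymphatic endothelial cells close a scratch wound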 (primary screen). Cell system: human lymphatic endothelial cells. Reagents: siRNA pool against human genes, 40 nM. Time to read-out: 48 h after transfection. Measured: 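High-content imaging of dye-stained cells in a scratch assay measures filled wound area and nuclei per well; duplicate means given as ratio to mock and robust z-score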. Direction: migration robust z-score: higher = faster migration into the scratch; migration relative to mock: higher = more scratch area covered than mock; nuclei per well: higher = more cells in the well. Call rule: 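Migration changed when robust z exceeds 2 or falls below -2 and mean nuclei number is at least 3300; otherwise not called changed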. Calls: active = migration changed; inactive = no migration change, or too few cells.
The deposit covers about 18,000 reagents; this is a random part of them. Over the whole deposit, about 1,030 (5.7%) are marked active. 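Inactive calls also include pools with fewer than 3300 nuclei, whose migration was not assessed.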 The raw values are shown without normalisation.

Target gene	migration robust z-score	migration class with cell-count check	migration relative to mock	nuclei per well, duplicate mean	activity call
UTS2 (urotensin 2)	1.59	migration z between -2 and 2; enough cells	1.29	5326	inactive
TTF1 (transcription termination factor 1)	-0.29	migration z between -2 and 2; enough cells	0.75	5664	inactive
RPLP0 (ribosomal protein lateral stalk subunit P0)	-1.02	migration z between -2 and 2; enough cells	0.62	4327	inactive
PIGA (phosphatidylinositol glycan anchor biosynthesis class A)	1.58	migration z between -2 and 2; enough cells	1.11	6890	inactive
H1-1 (H1.1 linker histone, cluster member)	-1.84	migration z between -2 and 2; enough cells	0.4	3816	inactive
TRMT1 (tRNA methyltransferase 1)	0.18	migration z between -2 and 2; enough cells	0.84	4716	inactive
ICOSLG (inducible T cell costimulator ligand)	-1.14	migration z between -2 and 2; enough cells	0.6	4096	inactive
AKAP19 (A-kinase anchoring protein 19)	0.66	migration z between -2 and 2; enough cells	1.06	5866	inactive
DNAJC25-GNG10 (DNAJC25-GNG10 readthrough)	-0.22	migration z between -2 and 2; enough cells	0.83	6382	inactive
NLRP3 (NLR family pyrin domain containing 3)	-0.24	migration z between -2 and 2; enough cells	0.76	6497	inactive
PSME1 (proteasome activator subunit 1)	-0.46	migration z between -2 and 2; enough cells	0.76	5323	inactive
CXorf65 (chromosome X open reading frame 65)	-0.12	migration z between -2 and 2; enough cells	0.85	5131	inactive
LOC402715 (karyopherin subunit alpha 2 pseudogene)	-1.12	migration z between -2 and 2; enough cells	0.6	5233	inactive
LIN37 (lin-37 DREAM MuvB core complex component)	-0.65	migration z between -2 and 2; enough cells	0.72	5027	inactive
OR52A5 (olfactory receptor family 52 subfamily A member 5)	-0.2	migration z between -2 and 2; enough cells	0.84	6592	inactive
SAMD12 (sterile alpha motif domain containing 12)	1	migration z between -2 and 2; enough cells	1.15	5542	inactive
MDP1 (magnesium dependent phosphatase 1)	1.14	migration z between -2 and 2; enough cells	1.18	5850	inactive
RIC1 (RIC1 partner of RAB6A GEF complex)	-1.45	migration z between -2 and 2; enough cells	0.51	5438	inactive
ZCWPW2 (zinc finger CW-type and PWWP domain containing 2)	-0.74	migration z between -2 and 2; enough cells	0.7	7255	inactive
CXCR2 (C-X-C motif chemokine receptor 2)	-0.39	migration z between -2 and 2; enough cells	0.73	5604	inactive
BCL2L12 (BCL2 like 12)	-1.56	migration z between -2 and 2; enough cells	0.48	4798	inactive
ZNRF3 (zinc and ring finger 3)	-0.1	migration z between -2 and 2; enough cells	0.78	5468	inactive
KRT38 (keratin 38)	-0.71	under 3300 nuclei; migration not judged	0.7	1890	inactive

Copied from above, 3 entries:
Target gene	migration robust z-score	migration class with cell-count check	migration relative to mock	nuclei per well, duplicate mean	activity call
ZCWPW2 (zinc finger CW-type and PWWP domain containing 2)	-0.74	migration z between -2 and 2; enough cells	0.7	7255	inactive
CXCR2 (C-X-C motif chemokine receptor 2)	-0.39	migration z between -2 and 2; enough cells	0.73	5604	inactive
BCL2L12 (BCL2 like 12)	-1.56	migration z between -2 and 2; enough cells	0.48	4798	inactive

Further records:
Target gene	migration robust z-score	migration class with cell-count check	migration relative to mock	nuclei per well, duplicate mean	activity call
ESS2 (ess-2 spliceosome associated protein)	-0.18	migration z between -2 and 2; enough cells	0.84	3426	inactive
EPB42 (erythrocyte membrane protein band 4.2)	0.08	migration z between -2 and 2; enough cells	0.82	5388	inactive
CCL17 (C-C motif chemokine ligand 17)	-0.62	migration z between -2 and 2; enough cells	0.72	4068	inactive
USP49 (ubiquitin specific peptidase 49)	0	migration z between -2 and 2; enough cells	0.8	3738	inactive
PCOLCE2 (procollagen C-endopeptidase enhancer 2)	-0.56	migration z between -2 and 2; enough cells	0.74	5300	inactive
PDE4D (phosphodiesterase 4D)	-0.62	migration z between -2 and 2; enough cells	0.68	4352	inactive
POM121 (POM121 transmembrane nucleoporin)	0.22	migration z between -2 and 2; enough cells	0.94	3565	inactive
ZNF678 (zinc finger protein 678)	1.73	migration z between -2 and 2; enough cells	1.34	4773	inactive
PARD3B (par-3 family cell polarity regulator beta)	-0.43	migration z between -2 and 2; enough cells	0.77	6322	inactive
PPIC (peptidylprolyl isomerase C)	-1.53	migration z between -2 and 2; enough cells	0.51	3550	inactive
RDH8 (retinol dehydrogenase 8)	0.28	migration z between -2 and 2; enough cells	0.86	5966	inactive
SMARCAD1 (SNF2 related chromatin remodeling ATPase with DExD box 1)	-0.36	migration z between -2 and 2; enough cells	0.79	5203	inactive
RNASE11 (ribonuclease A family member 11 (inactive))	-0.35	migration z between -2 and 2; enough cells	0.8	6612	inactive
ETV7 (ETS variant transcription factor 7)	1.29	migration z between -2 and 2; enough cells	1.06	7765	inactive
OR7G2 (olfactory receptor family 7 subfamily G member 2)	0.8	migration z between -2 and 2; enough cells	1.09	5430	inactive
ARL11 (ARF like GTPase 11)	2.83	migration z above 2; enough cells	1.62	6242	active
